These results are taken from article PMC4266540.

The exact form of at least one protein or probe is not confirmed. A negative result means that nothing was seen under these conditions. Tags and fusion partners may be left off the protein sequences shown.

The target in this data set is T1, AraC (MSMEG_0307) (Mycobacterium smegmatis mc2155) (UniProt A0QP84).
T1 sequence (looked up, limits assumed): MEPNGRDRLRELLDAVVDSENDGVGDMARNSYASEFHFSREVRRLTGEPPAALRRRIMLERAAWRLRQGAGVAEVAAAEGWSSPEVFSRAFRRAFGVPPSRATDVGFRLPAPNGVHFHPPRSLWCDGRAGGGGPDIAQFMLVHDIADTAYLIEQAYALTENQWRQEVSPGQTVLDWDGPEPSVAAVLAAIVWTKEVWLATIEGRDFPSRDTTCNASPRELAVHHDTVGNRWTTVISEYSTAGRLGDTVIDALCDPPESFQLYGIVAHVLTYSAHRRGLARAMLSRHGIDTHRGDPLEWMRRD
Kind of data set: EMSA. The note with it: 10 mM MgCl2; EMSA: 20 mM Tris-HCl pH 8, 75 mM NaCl, 10 mM MgCl2, 100 ng DNA in 10 ul, room temperature 30 min; native PAGE (5% in Methods, 8% in legend), ethidium bromide; recombinant protein; protein details: His6 with thrombin site (pET28b(+), N-terminal); probe letters rebuilt from the primers and the genome.

Consider “AGTGGAACTCCGAGGCGTAGCTGTTGCGCGCCATGTCGCCGACACCGTCGTTCTCGGAGTCGACGACGGCGTCGAGCAGTTCACGCAGCCGGTCGCGCCCGTTCGGTTCCACACTCACGTTCACCGAGTATGGTCGGCGCGCCGGGGTCAGGACATGACTTTTCTTGCTGTGATCCCCCGGCTCAGGTGTCGAGCACCTCGGCGACACGTGCCTGGACGTCACGGCCGGCCAGATCGCCGAGGTCGATGCCGAACCGGTTGACGATGGCGTCGAGCACCTGTGCCGCGCTGTCGAACCGGATGCGCTCGGTCGCACCGGACCGGTGGACCGCCAGGTTGC (double strand) [Motif 2 fragment]”, for which the binding result is “no binding”.

As to “CGATCGCGTGCAATGTGCCGAGATCGGGACGCGGCCGCCCGTCGAGGCCGATCCGCGCGAGATACCCGCTGAGGTCCATCGCCATGCCTGCCATCGTCCAACCTCGACAGCAGTTCAGGTCAAGTAGGATGGAGAACTAGAACACGTTCCAATTCACGTCAGGGGGACCCCCGTGGCCGCTACCGATACCGACCCAGGTGAGATCACCAAGTGGGATCCCGGCCTCACCGAGAAGGTCATGGGCTGGCTGCGCCCGCTCATCAAGGGGTATCACCGGGCCGAGGTGCACGGCCTCGACACGTTCCCCAAC (double strand) [Motif 1 fragment]”, the binding result is “binds”.
